Test results taken from patent publication US20250041624A1, “METHOD FOR ENHANCING ACTIVITY OF PHOTOSENSITIZER BY MAGNETIC FIELD” (PEKING UNIVERSITY, priority 2021, published 2025).

Test: Reaction rate of KI with 1O2 (I3− absorbance at 350 nm) under light and magnetic field
Format: physicochemical
Conditions: RB; MF increasing from 135 mT to 850 mT
Protocol: (1) The photosensitizers Rose Bengal (RB) and potassium iodide KI are dissolved in water, with the concentrations of photosensitizer and KI is 10 μmol/L and 10 mmol/L, respectively in the resulting solution. […] The above UV-vis absorption spectra tests are performed in the strength range of the magnetic field from 0 to 850 mT respectively.
(2) The photosensitizer chlorin e6 (Ce6, Chlorin e6) and potassium iodide KI are dissolved in water, with the concentrations of the photosensitizer and KI of 10 μmol/L and 10 mmol/L in the resulting solutions. In a magnetic field with certain strength, the solutions are exposed to a 635 nm LED lamp (light emitting diode) at a power of 5 mW·cm^−2, and tested for absorption spectra every 15 seconds over 5 min, and the absorbance at 350 nm is recorded to obtain absorbance versus time curves. The above UV-vis absorption spectra are obtained at a magnetic field strength range from 0 to 850 mT, respectively. […]
Under irradiation conditions, photosensitizer is excited to produce singlet oxygen ^1O2, and KI reacts with ^1O2 to give I2 and target detector, iodine triion I3^−, characterized by absorption bands centered at 300 and 350 nm in UV-vis absorption spectrum. The reaction rate is R, which is proportional to the slope of absorbance-time curve of iodine triion I3^− at 350 nm. […]

**Q.** With `O=C1OC2(c3cc(I)c(O)c(I)c3Oc3c2cc(I)c(O)c3I)c2c(Cl)c(Cl)c(Cl)c(Cl)c21` [RB, Rose Bengal] as the compound, how does the “trend of mfeR” value read?
**A.** rapidly decreases
